In PubChem BioAssay AID1347076 (National Center for Advancing Translational Sciences (NCATS), 2019):
About 13,000 (3.2%) of roughly 400,000 compounds were called active. Inconclusive results, whose numbers are uncertain, are shown with a selection of clear calls. Calls come from the whole dose curve; as a rule, active = well fitted cell-killing curve with a large enough effect; inconclusive = small, poorly fitted or top-dose-only effect, or effect the other way; inactive = flat fitted curve, though single readings scatter. Potencies beside an inconclusive call are fits to weak or partial responses and may not hold up.

Assay: qHTS assay for MDR1-selective chemotherapeutics: Primary screen using the drug-selected MDR subline cells KB-V1; note: nearly all actives have a fitted effect of over 60% in size
Settings: KB-V1 MDR cells viability, CellTiter-Glo, 72 h; series mostly up to 46.1 µM
Summary of the method: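 Cytotoxicity via CellTiter-Glo luminescence after 72 h compound exposure at 37 degrees C. Cells: drug-selected KB-V1 line, DMEM phenol-red free plus 10% FBS. Compounds tested at multiple concentrations; normalized data fitted to concentration-effect curves.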
Potency is the fitted concentration of half-maximal effect.

| SMILES | Potency |
| --- | --- |
| Cc1ccc(Oc2nnc(-c3ccc(C)cc3)c3ccccc23)cc1 | active: 18.4 µM |
| Cc1cccc2[nH]c(CN(C)C(=O)C3CCC(=O)N(C4CC4)C3)nc12 (stereo not drawn) | inconclusive: 0.82 µM [rising, full curve] |
| CSc1nc2ccccc2n1CC(=O)Nc1cc(C(F)(F)F)ccc1N1CCOCC1 | inconclusive: 9.2 µM [cytotoxic, partial curve, poor fit] |
| COC(=O)[C@H](C(C)C)N(Cc1ccccc1)S(=O)(=O)CCNC1CCCC1 | inactive |
| CCN(CC(=O)Nc1cc(Cl)ccc1C)C(=O)COc1ccccc1F | inconclusive: 10.3 µM [cytotoxic, partial curve] |
| c1ccc(Cn2nnc3c(N4CCCC4)ncnc32)cc1 | active: 18.4 µM |
| CCOC(=O)c1c(NC(C)=O)sc2c(OCC(O)CNC(C)(C)C)c(Br)ccc12 (stereo not drawn) | inconclusive: 29.1 µM [rising, single point] |
| O=C(Nc1ccccc1)C1=C[C@@H](c2ccccc2)C[C@@H](OCc2ccc(CO)cc2)O1 | inactive |
| CN(Cc1ccc(F)cc1)C(=O)c1ccc(NS(=O)(=O)c2ccc3[nH]c(=O)[nH]c3c2)cc1 | inconclusive: 11.6 µM [rising, partial curve] |
| CCN(c1ccccc1)S(=O)(=O)c1cccc(C(=O)NCC(c2ccco2)N2CCCCC2)c1 (stereo not drawn) | inactive |
| C[C@@H]1CCCCO[C@@H](CN(C)C(=O)C2CCCCC2)[C@@H](C)CN([C@H](C)CO)C(=O)c2cc(NC(=O)NC3CCCCC3)ccc2O1 | inactive |
| COc1ccc(C(C(=O)Nc2c(C)cccc2C)n2c(=O)c(-c3ccco3)nc3ccccc32)cc1 (stereo not drawn) | inactive |
| CCOc1ccc(C=NNc2ccc(S(=O)(=O)Nc3ccccc3C(=O)O)cc2[N+](=O)[O-])cc1OC | inconclusive: 20.6 µM [rising, partial curve] |
| COCCCn1cc(CN(C)C2CN(Cc3cn(CCCOC)nn3)S(=O)(=O)C2)nn1 (stereo not drawn) | inactive |
| COc1ccc2c(c1)CCC(C)N2S(=O)(=O)c1ccc(C2CNC(=O)C2)cc1 (stereo not drawn) | inconclusive: 29.1 µM [cytotoxic, single point] |
| CCN(CC)CCn1c(NCc2nc3ccccc3n2Cc2ccccc2)nc2ccccc21 | inactive |
| COc1cccc(OCCOc2cccc(/C=N/n3cnnc3)c2)c1 | active: 18.4 µM |
| COC(=O)c1c(NC(=O)C2C3CCC(C3)C2C(=O)O)sc2c1CCCCC2 (stereo not drawn) | inconclusive: 29.1 µM [cytotoxic, single point] |
| CCCC(C(=O)NC(C)(C)C)N(CC1CCCO1)C(=O)c1snc(C(N)=O)c1N (stereo not drawn) | inconclusive: 16.4 µM [cytotoxic, partial curve, poor fit] |
| Cc1ccc(S(=O)(=O)N2CCN(S(=O)(=O)c3ccc4c(c3)OCCCO4)CC2)cc1 | inactive |
| CC(=O)c1cn(CC(=O)NCc2ccc3c(c2)OCO3)c2ccccc12 | inconclusive: 16.4 µM [cytotoxic, single point] |
| COc1ccccc1CNC(=O)C1CCCN(c2nnc(-n3c(C)ccc3C)s2)C1 (stereo not drawn) | inactive |

Three entries from above, sorted by molar mass, low to high.

| SMILES | Potency |
| --- | --- |
| Cc1ccc(Oc2nnc(-c3ccc(C)cc3)c3ccccc23)cc1 | active: 18.4 µM |
| COc1cccc(OCCOc2cccc(/C=N/n3cnnc3)c2)c1 | active: 18.4 µM |
| CCN(c1ccccc1)S(=O)(=O)c1cccc(C(=O)NCC(c2ccco2)N2CCCCC2)c1 (stereo not drawn) | inactive |

Next part.

| SMILES | Potency |
| --- | --- |
| Cc1ccc2nc(N/N=C/c3ccccc3C#N)nc(-c3ccccc3)c2c1 | inconclusive: 9.2 µM [cytotoxic, partial curve, poor fit] |
| CC(C)(C)c1ccc(C(=O)N2CCC2(C)C(=O)NS(=O)(=O)c2ccc(C#N)cc2)cc1 (stereo not drawn) | inactive |
| Cc1ccc(Cn2ccc(NC(=O)c3cc(-c4ccco4)on3)n2)cc1 | inconclusive: 29.1 µM [cytotoxic, single point] |
| COc1cc(O)c(C=NN2C(=O)CSC2=S)c(OC)c1 | inactive |
| COc1ccc(C(=O)N/N=C/c2ccc(OC)c(COc3ccccc3)c2)cc1 | inconclusive: 18.4 µM [cytotoxic, single point] |
| C=CCN(c1ccc(C(=O)NCCc2ccccc2)cc1)S(C)(=O)=O | inconclusive: 13 µM [cytotoxic, partial curve, poor fit] |
| Cc1cc(SCn2nnc3ccccc3c2=O)nc2ccccc12 | active: 16.4 µM |
| Cc1cccc(C)c1NC(=O)C1C(c2ccc3c(c2)OCO3)=Nc2ccccc2N1C(=O)c1ccccn1 (stereo not drawn) | inconclusive: 18.4 µM [cytotoxic, partial curve] |
| COCCCNC(=O)/C(C#N)=C/c1ccc(OCC(=O)O)c(OC)c1 | inactive |
| COc1ccc(/C(C)=N\Nc2nc(-c3ccccc3)cc(=O)[nH]2)cc1 | inconclusive: 0.82 µM [cytotoxic, full curve] |
| CCOC(=O)c1ccccc1NC(=O)C1=COCCO1 | inconclusive: 16.4 µM [cytotoxic, partial curve, poor fit] |
| COc1ccc(OC)c(CNC(=O)c2ccc(-c3nc(CSc4ccccc4)c(C)o3)cc2)c1 | inactive |
| CCN(CC)CCN1C(=O)C(=O)/C(=C(/O)c2cnn(-c3ccccc3)c2C)C1c1cccnc1 (stereo not drawn) | inconclusive: 10.3 µM [rising, partial curve, poor fit] |
| CC(=O)c1cccc(NC(=O)C2Cc3c(-c4cccc(C(C)=O)c4)ccnc3O2)c1 (stereo not drawn) | active: 20.6 µM |
| COc1ccc(CC(N)c2csc(Nc3nncc4ccccc34)n2)cc1 (stereo not drawn) | inconclusive: 25.9 µM [cytotoxic, single point] |
| CCN1C(=O)c2cccc3c(S(=O)(=O)NC(Cc4c[nH]c5ccccc45)C(=O)O)ccc1c23 (stereo not drawn) | inconclusive: 16.4 µM [rising, partial curve] |
| COc1c2c(cc3oc(C)cc(=O)c13)OC(C(C)(C)OC1OC(CO)C(O)C(O)C1O)C2 (stereo not drawn) | inconclusive: 1.84 µM [cytotoxic, full curve] |
| Cc1sc2ncnc(OCC(=O)Nc3ccc4c(c3)OCCO4)c2c1C | inconclusive: 18.4 µM [cytotoxic, single point] |
| CNC(=O)CSc1nc(-c2ccccc2)c(-c2ccccc2)[nH]1 | inconclusive: 18.4 µM [cytotoxic, single point] |
| S=C(CN1CCCC1=S)NCCc1ccccc1 | inactive |
| Clc1ccccc1-c1ccc2ncnc(NCc3cccs3)c2c1 | inconclusive: 23.1 µM [cytotoxic, single point] |
